Reference: article PMC5951673
Results are given in words; binding and its absence hold for the method and conditions named. Binding seen in cells or lysates may run through a third protein. Some entries that bind do so weakly or less than the wild type. For some of these results: Tags and fused reporters may be left off the sequences shown. Values belong to the binder of their own block, whether it stands above or below them.

By UniProt entry, the sequences of proteins in these tests, tags left out. Residues count along the entry.
UniProt Q13586, residues 23-685: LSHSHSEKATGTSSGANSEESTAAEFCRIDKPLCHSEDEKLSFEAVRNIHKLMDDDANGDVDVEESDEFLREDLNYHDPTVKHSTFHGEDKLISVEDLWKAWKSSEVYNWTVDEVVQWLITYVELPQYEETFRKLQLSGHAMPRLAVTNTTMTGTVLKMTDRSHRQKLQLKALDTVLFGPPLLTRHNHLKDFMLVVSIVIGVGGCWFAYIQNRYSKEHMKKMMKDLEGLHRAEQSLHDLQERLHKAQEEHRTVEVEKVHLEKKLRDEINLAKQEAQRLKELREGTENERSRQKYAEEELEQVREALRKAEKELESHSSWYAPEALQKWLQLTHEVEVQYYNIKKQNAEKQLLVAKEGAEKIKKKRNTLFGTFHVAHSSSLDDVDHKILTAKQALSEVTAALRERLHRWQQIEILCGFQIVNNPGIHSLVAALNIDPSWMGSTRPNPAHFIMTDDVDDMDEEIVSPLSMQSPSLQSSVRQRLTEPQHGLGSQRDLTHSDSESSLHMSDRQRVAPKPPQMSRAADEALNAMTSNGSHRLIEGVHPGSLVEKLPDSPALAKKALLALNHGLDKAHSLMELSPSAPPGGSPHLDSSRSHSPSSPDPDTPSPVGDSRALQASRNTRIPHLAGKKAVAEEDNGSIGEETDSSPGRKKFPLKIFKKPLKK

What was measured:
Bestrophin 1 = target: T1, Bestrophin 1 (UniProt O76090); test: co-IP; HEK293 cells transduced with CLCA2-flag or vector; cleared NP40 lysates (25mM Tris pH 7.6, 150mM NaCl, 0.5% NP-40); protein A/G beads washed four times; immunoblot, bands quantified by fluorimetric scans (Licor Odyssey); repeated on surface-biotinylated cells (Fig 5A)
T1 sequence: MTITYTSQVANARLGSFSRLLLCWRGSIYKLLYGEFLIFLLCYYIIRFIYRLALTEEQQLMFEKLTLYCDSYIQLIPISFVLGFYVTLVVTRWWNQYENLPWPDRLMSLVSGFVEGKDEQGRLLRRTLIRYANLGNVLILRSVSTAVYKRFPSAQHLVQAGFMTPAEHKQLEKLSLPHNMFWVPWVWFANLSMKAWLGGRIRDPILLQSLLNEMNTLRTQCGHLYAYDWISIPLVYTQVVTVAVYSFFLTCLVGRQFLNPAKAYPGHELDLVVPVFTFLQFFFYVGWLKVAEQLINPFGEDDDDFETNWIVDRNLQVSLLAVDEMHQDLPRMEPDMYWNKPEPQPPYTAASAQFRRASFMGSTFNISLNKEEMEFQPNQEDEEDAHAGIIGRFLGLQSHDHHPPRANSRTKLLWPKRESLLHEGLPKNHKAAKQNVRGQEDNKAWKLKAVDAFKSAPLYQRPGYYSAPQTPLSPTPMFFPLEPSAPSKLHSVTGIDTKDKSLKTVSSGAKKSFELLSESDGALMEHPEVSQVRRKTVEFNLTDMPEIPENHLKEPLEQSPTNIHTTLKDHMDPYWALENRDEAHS

[1] = target: STIM-1 (Stromal Interaction Molecule 1) (human (endogenous in HEK293)) (UniProt Q13586); test: as above
[2] = target: STIM-1, endogenous in MCF10A (human (endogenous in MCF10A)) (UniProt Q13586); test: co-IP; MCF10A cells grown to superconfluency and treated with CPA to activate STIM-1; endogenous proteins; vector or shRNA targeting CLCA2
[3] = target: T2, CLCA2, transiently over-expressed in HEK293T (human) (UniProt Q9UQC9); test: co-IP; HEK293T cells with transient over-expression of CLCA2 and TMEM16A in different concentration ratios; immunoprecipitated and detected with antibodies specific for either protein
T2 sequence: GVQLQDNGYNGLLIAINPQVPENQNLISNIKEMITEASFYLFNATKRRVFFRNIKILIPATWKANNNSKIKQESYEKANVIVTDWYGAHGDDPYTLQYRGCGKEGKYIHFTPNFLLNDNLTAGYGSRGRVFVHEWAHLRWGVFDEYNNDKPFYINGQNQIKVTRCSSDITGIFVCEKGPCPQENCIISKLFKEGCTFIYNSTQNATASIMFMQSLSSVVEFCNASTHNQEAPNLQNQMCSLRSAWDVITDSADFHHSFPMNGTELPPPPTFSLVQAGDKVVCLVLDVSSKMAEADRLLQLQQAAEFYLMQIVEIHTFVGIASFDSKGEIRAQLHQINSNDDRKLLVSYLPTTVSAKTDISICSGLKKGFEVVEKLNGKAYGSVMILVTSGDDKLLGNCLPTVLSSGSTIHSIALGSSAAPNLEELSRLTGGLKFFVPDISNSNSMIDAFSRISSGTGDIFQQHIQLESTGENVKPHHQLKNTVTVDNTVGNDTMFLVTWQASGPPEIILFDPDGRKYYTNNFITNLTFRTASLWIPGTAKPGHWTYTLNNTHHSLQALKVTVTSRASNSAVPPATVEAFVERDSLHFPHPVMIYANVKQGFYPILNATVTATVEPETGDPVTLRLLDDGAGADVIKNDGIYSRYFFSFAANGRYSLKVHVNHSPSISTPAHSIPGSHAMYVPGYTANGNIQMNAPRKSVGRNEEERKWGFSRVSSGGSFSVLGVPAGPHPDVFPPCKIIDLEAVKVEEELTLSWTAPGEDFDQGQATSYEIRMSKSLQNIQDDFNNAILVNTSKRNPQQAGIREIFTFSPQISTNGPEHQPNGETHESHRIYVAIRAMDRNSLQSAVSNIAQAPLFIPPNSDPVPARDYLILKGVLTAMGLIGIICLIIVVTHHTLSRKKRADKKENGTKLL

binding (Bestrophin 1): no binding | binding [1]: binds
B1: CLCA2-Flag (human Chloride Channel Accessory 2, Flag-tagged) (protein, UniProt Q9UQC9 32-943)
chain: GVQLQDNGYNGLLIAINPQVPENQNLISNIKEMITEASFYLFNATKRRVFFRNIKILIPATWKANNNSKIKQESYEKANVIVTDWYGAHGDDPYTLQYRGCGKEGKYIHFTPNFLLNDNLTAGYGSRGRVFVHEWAHLRWGVFDEYNNDKPFYINGQNQIKVTRCSSDITGIFVCEKGPCPQENCIISKLFKEGCTFIYNSTQNATASIMFMQSLSSVVEFCNASTHNQEAPNLQNQMCSLRSAWDVITDSADFHHSFPMNGTELPPPPTFSLVQAGDKVVCLVLDVSSKMAEADRLLQLQQAAEFYLMQIVEIHTFVGIASFDSKGEIRAQLHQINSNDDRKLLVSYLPTTVSAKTDISICSGLKKGFEVVEKLNGKAYGSVMILVTSGDDKLLGNCLPTVLSSGSTIHSIALGSSAAPNLEELSRLTGGLKFFVPDISNSNSMIDAFSRISSGTGDIFQQHIQLESTGENVKPHHQLKNTVTVDNTVGNDTMFLVTWQASGPPEIILFDPDGRKYYTNNFITNLTFRTASLWIPGTAKPGHWTYTLNNTHHSLQALKVTVTSRASNSAVPPATVEAFVERDSLHFPHPVMIYANVKQGFYPILNATVTATVEPETGDPVTLRLLDDGAGADVIKNDGIYSRYFFSFAANGRYSLKVHVNHSPSISTPAHSIPGSHAMYVPGYTANGNIQMNAPRKSVGRNEEERKWGFSRVSSGGSFSVLGVPAGPHPDVFPPCKIIDLEAVKVEEELTLSWTAPGEDFDQGQATSYEIRMSKSLQNIQDDFNNAILVNTSKRNPQQAGIREIFTFSPQISTNGPEHQPNGETHESHRIYVAIRAMDRNSLQSAVSNIAQAPLFIPPNSDPVPARDYLILKGVLTAMGLIGIICLIIVVTHHTLSRKKRADKKENGTKLL

binding [2]: binds
B2: CLCA2, endogenous in MCF10A (protein, UniProt Q9UQC9 32-943)
chain: GVQLQDNGYNGLLIAINPQVPENQNLISNIKEMITEASFYLFNATKRRVFFRNIKILIPATWKANNNSKIKQESYEKANVIVTDWYGAHGDDPYTLQYRGCGKEGKYIHFTPNFLLNDNLTAGYGSRGRVFVHEWAHLRWGVFDEYNNDKPFYINGQNQIKVTRCSSDITGIFVCEKGPCPQENCIISKLFKEGCTFIYNSTQNATASIMFMQSLSSVVEFCNASTHNQEAPNLQNQMCSLRSAWDVITDSADFHHSFPMNGTELPPPPTFSLVQAGDKVVCLVLDVSSKMAEADRLLQLQQAAEFYLMQIVEIHTFVGIASFDSKGEIRAQLHQINSNDDRKLLVSYLPTTVSAKTDISICSGLKKGFEVVEKLNGKAYGSVMILVTSGDDKLLGNCLPTVLSSGSTIHSIALGSSAAPNLEELSRLTGGLKFFVPDISNSNSMIDAFSRISSGTGDIFQQHIQLESTGENVKPHHQLKNTVTVDNTVGNDTMFLVTWQASGPPEIILFDPDGRKYYTNNFITNLTFRTASLWIPGTAKPGHWTYTLNNTHHSLQALKVTVTSRASNSAVPPATVEAFVERDSLHFPHPVMIYANVKQGFYPILNATVTATVEPETGDPVTLRLLDDGAGADVIKNDGIYSRYFFSFAANGRYSLKVHVNHSPSISTPAHSIPGSHAMYVPGYTANGNIQMNAPRKSVGRNEEERKWGFSRVSSGGSFSVLGVPAGPHPDVFPPCKIIDLEAVKVEEELTLSWTAPGEDFDQGQATSYEIRMSKSLQNIQDDFNNAILVNTSKRNPQQAGIREIFTFSPQISTNGPEHQPNGETHESHRIYVAIRAMDRNSLQSAVSNIAQAPLFIPPNSDPVPARDYLILKGVLTAMGLIGIICLIIVVTHHTLSRKKRADKKENGTKLL

binding [3]: no binding
B3: TMEM16A (Anoctamin1), transiently over-expressed in HEK293T (protein, UniProt Q5XXA6 1-986)
chain: MRVNEKYSTLPAEDRSVHIINICAIEDIGYLPSEGTLLNSLSVDPDAECKYGLYFRDGRRKVDYILVYHHKRPSGNRTLVRRVQHSDTPSGARSVKQDHPLPGKGASLDAGSGEPPMDYHEDDKRFRREEYEGNLLEAGLELERDEDTKIHGVGFVKIHAPWNVLCREAEFLKLKMPTKKMYHINETRGLLKKINSVLQKITDPIQPKVAEHRPQTMKRLSYPFSREKQHLFDLSDKDSFFDSKTRSTIVYEILKRTTCTKAKYSMGITSLLANGVYAAAYPLHDGDYNGENVEFNDRKLLYEEWARYGVFYKYQPIDLVRKYFGEKIGLYFAWLGVYTQMLIPASIVGIIVFLYGCATMDENIPSMEMCDQRHNITMCPLCDKTCSYWKMSSACATARASHLFDNPATVFFSVFMALWAATFMEHWKRKQMRLNYRWDLTGFEEEEEAVKDHPRAEYEARVLEKSLKKESRNKEKRRHIPEESTNKWKQRVKTAMAGVKLTDKVKLTWRDRFPAYLTNLVSIIFMIAVTFAIVLGVIIYRISMAAALAMNSSPSVRSNIRVTVTATAVIINLVVIILLDEVYGCIARWLTKIEVPKTEKSFEERLIFKAFLLKFVNSYTPIFYVAFFKGRFVGRPGDYVYIFRSFRMEECAPGGCLMELCIQLSIIMLGKQLIQNNLFEIGIPKMKKLIRYLKLKQQSPPDHEECVKRKQRYEVDYNLEPFAGLTPEYMEMIIQFGFVTLFVASFPLAPLFALLNNIIEIRLDAKKFVTELRRPVAVRAKDIGIWYNILRGIGKLAVIINAFVISFTSDFIPRLVYLYMYSKNGTMHGFVNHTLSSFNVSDFQNGTAPNDPLDLGYEVQICRYKDYREPPWSENKYDISKDFWAVLAARLAFVIVFQNLVMFMSDFVDWVIPDIPKDISQQIHKEKVLMVELFMREEQDKQQLLETWMEKERQKDEPPCNHHNTKACPDSLGSPAPSHAYHGGVL
